Consider three molecules from publication doi:10.1101/2023.10.24.563883.

Sequences and labels used below:
B1: TMC1 (endogenous, mouse cochlea) (protein, UniProt Q8R4P5 1-757)
chain: MLQIQVEEKEEDTEESSSEEEEDKLPRRESLRPKRKRTRDVINEDDPEPEPEDEETRKAREKERRRRLRRGAEEEEEIDEEELERLKALLDENRQMIATVKCKPWKMEKKIEVLKEAKKFVSENEGALGKGKGKKWFAFKMMMAKKWAKFLRDFENFKAACVPWENKIKAIESQFGSSVASYFLFLRWMYGVNMVLFVLTFSLIMLPEYLWGLPYGSLPRKTVPRAEEASAANFGVLYDFNGLAQYSVLFYGYYDNKRTIGWLNFRLPLSYFLVGIMCIGYSFLVVLKAMTKNIGDDGGGDDNTFNFSWKVFCSWDYLIGNPETADNKFNSITMNFKEAIIEERAAQVEENIHLIRFLRFLANFFVFLTLGASGYLIFWAVKRSQEFAQQDPDTLGWWEKNEMNMVMSLLGMFCPTLFDLFAELEDYHPLIALKWLLGRIFALLLGNLYVFILALMDEINNKIEEEKLVKANITLWEANMIKAYNESLSGLSGNTTGAPFFVHPADVPRGPCWETMVGQEFVRLTVSDVLTTYVTILIGDFLRACFVRFCNYCWCWDLEYGYPSYTEFDISGNVLALIFNQGMIWMGSFFAPSLPGINILRLHTSMYFQCWAVMCCNVPEARVFKASRSNNFYLGMLLLILFLSTMPVLYMIVSLPPSFDCGPFSGKNRMFEVIGETLEHDFPSWMAKILRQLSNPGLVIAVILVMVLTIYYLNATAKGQKAANLDLKKKMKQQALENKMRNKKMAAARAAAAAGGQ
B2: CNGA3 (endogenous, mouse cochlea) (protein, UniProt Q9JJZ8 1-631)
chain: MAKVNTQCSQPSPTQLSIKNADRDLDHVENGLGRVSRLIISIRAWASRHLHDEDQTPDSFLDRFHGSELKEVSTRESNAQPNPGEQKPPDGGEGRKEEPIVVDPSSNIYYRWLTAIALPVFYNWCLLVCRACFDELQSEHLTLWLVLDYSADVLYVLDMLVRARTGFLEQGLMVRDTKRLWKHYTKTLHFKLDILSLIPTDLAYLKLGVNYPELRFNRLLKFSRLFEFFDRTETRTNYPNVFRIGNLVLYTLIIIHWNACIYFAISKFIGFGTDSWVYPNTSKPEYARLSRKYIYSLYWSTLTLTTIGETPPPVKDEEYLFVVIDFLVGILIFATIVGNVGSMISNMNAPRVEFQAKIDSVKQYMQFRKVTKDLETRVIRWFDYLWANRKTVDEKEVLKNLPDKLKAEIAINVHLDTLKKVRIFQDCEAGLLVELVLKLRPTVFSPGDYICKKGDIGREMYIIKEGKLAVVADDGVTQFVVLSDGSYFGEISILNIKGSKSGNRRTANIRSIGYSDLFCLSKDDLMEALTEYPDAKRALEEKGRQILMKDNLIDEDLVAARVDTRDVEEKVEYLESSLDILQTRFARLLAEYSASQMKLKQRLTRLESQMNRRCCGFSPDRENSEDASKTD

No constants are given. Whether binding was seen depends on the method and setting. In cells and extracts the contact can be indirect. Here binding means that the protein was enriched with, or labelled near, the bait; the list need not be complete. Tags and fused reporters may be left off the sequences shown.

The target in the assay is T1, Flag-tagged LPHN2-GAIN (UniProt O95490).
T1 sequence: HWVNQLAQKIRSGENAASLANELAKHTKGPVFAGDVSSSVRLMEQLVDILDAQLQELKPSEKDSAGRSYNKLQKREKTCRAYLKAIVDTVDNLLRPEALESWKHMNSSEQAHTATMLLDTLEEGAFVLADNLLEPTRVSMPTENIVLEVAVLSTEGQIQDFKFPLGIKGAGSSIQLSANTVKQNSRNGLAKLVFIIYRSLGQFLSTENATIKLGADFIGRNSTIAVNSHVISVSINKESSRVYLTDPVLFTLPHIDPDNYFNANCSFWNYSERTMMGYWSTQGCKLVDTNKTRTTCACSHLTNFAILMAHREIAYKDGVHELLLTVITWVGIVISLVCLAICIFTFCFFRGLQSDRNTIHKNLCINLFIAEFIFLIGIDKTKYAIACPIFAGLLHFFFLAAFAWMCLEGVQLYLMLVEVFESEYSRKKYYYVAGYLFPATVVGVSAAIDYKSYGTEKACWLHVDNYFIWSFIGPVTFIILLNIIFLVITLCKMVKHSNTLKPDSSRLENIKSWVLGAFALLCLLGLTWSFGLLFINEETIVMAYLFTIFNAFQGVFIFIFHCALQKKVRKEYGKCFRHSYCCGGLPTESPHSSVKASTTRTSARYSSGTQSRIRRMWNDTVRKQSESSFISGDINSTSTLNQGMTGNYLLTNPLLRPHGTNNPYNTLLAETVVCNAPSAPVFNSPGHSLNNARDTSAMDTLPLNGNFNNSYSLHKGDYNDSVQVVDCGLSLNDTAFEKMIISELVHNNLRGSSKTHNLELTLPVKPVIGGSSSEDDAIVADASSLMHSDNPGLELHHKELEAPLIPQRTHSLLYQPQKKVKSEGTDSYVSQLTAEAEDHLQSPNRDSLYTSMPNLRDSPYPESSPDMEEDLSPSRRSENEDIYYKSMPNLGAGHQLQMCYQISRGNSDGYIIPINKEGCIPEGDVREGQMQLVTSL
The assay is described as follows: affinity purification with mass spectrometry.
On to “PCDH15 (endogenous, mouse cochlea) (from UniProt Q99PJ1 27-1943)”, for which the binding entry is reported as “binds”.
To B1 belongs “binds”; to B2, “binds”.
